In US12540173B2, “Methods of treating cancer by targeting ZSCAN4 activity in cancer stem cells” (University of Maryland, Baltimore, priority 2019, dated 2026):
For at least one compound, name, drawing or mass did not settle the structure.

Tested on: tet-ZSCAN4 cells (Tu167 and 012SCC)
Assay: Tumorsphere formation after 48 h Dox pulse in tet-ZSCAN4 cells
Format: cell-based, human
Conditions: Dox 48 hours before tumorsphere formation, vs Dox- and WT

SMILES: C[C@H]1c2cccc(O)c2C(=O)C2=C(O)[C@]3(O)C(=O)C(C(N)=O)=C(O)[C@@H](N(C)C)[C@@H]3[C@@H](O)[C@@H]21 [Dox, Doxycycline]
- number and size of tumorspheres: significantly increases
